Results reported in US12268749B2 (Oxford University Innovation Limited, priority 2018, dated 2025).

Experiment: general procedure: Fmoc solid-phase peptide synthesis; Fmoc-β-Ala-OH preloaded Wang resin (0.19 or 0.46 mmol g−1); PyBOP/NMM (Intavis); PyBOP/DIPEA (CEM); conjugation PyBOP/HOAt/DIPEA or HBTU
Conditions: conjugation step

| Substance | conjugation yield [%] | conjugation yield (based on PMO) [%] |
| --- | --- | --- |
| Ac-RBRBRFQILYRBRRBRR-B | 24 | 24 |
| Ac-RBRRBRRYQFLIRBRBR-B | 24 | – |
